In all, about 360,000 compounds went through this assay and about 7,500 (2.1%) were called active. This list was built around the results that the source calls inconclusive (neither active nor inactive); the mix of calls is not that of the screen. Calls follow the shape of the dose curve; as a rule, active = well fitted inhibition curve with a large enough effect; inconclusive = small, poorly fitted or top-dose-only effect, or effect the other way; inactive = flat fitted curve, though single readings scatter. Where the call is inconclusive, the potency comes from a doubtful curve fit.
experiment: Nrf2 qHTS screen for inhibitors; conditions: A549 ARE-Fluc reporter, luciferase luminescence, 18-24 h; series mostly up to 46 µM; also: nearly all actives have a fitted effect of over 60% in size
Method in brief: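 A549 ARE_Fluc cells (5000/well, 5% FBS OPTI-MEM) pre-incubated 2 h, then treated with compounds 18-24 h at 37C/5% CO2 in concentration-response. CellTiter-Fluor viability read first; BugLite luciferase luminescence after 15 min at room temperature gives Nrf2 activity.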
Potency is read from the fitted curve at half-maximal effect.

| Structure (SMILES) | Potency |
| --- | --- |
| O=C(C1CCCN(S(=O)(=O)c2ccc(Br)cc2)C1)N1CCN(Cc2ccccc2)CC1 (stereo unspecified) | inconclusive: 29.1 µM [falling, single point] |
| O=c1n(Cc2ccccc2)nc2n1-c1ccccc1OC2 | inconclusive: 29.1 µM [activator, single point] |
| CCOC(=O)c1cnc2c(C)cccc2c1NCCCN1CCOCC1 | inactive |
| CCc1ccccc1N1CC(c2nc3ccccc3n2CCCCOc2ccccc2OC)CC1=O (stereo unspecified) | inconclusive: 16.4 µM [falling, single point] |
| COc1ccc(S(=O)(=O)Nc2ccc3cn[nH]c3c2)cc1C | inconclusive: 7.31 µM [falling, partial curve] |
| COc1ccc(C(=O)NC(=S)Nc2ccc(CN3CCOCC3)cc2)cc1 | inactive |
| Cc1noc(Cn2c(=O)c3cc4c(cc3n(CC(=O)Nc3ccc(C(C)C)cc3)c2=O)OCO4)n1 | inactive |
| CN(C)Cc1cc(O)c(CN(C)C)cc1O | inactive |
| CC(=O)OCc1nc2ccccc2s1 | inconclusive: 6.51 µM [activator, partial curve] |
| Nc1nnc(Cc2ccccc2F)s1 | inconclusive: 0.517 µM [activator, single point] |
| Cc1sc2nc(CSc3ncn[nH]3)[nH]c(=O)c2c1C | inconclusive: 23.1 µM [falling, partial curve, poor fit] |
| CCN(c1ccccc1)S(=O)(=O)c1ccc(NC(=O)c2cc(=O)c3c(C)cc(C)cc3o2)cc1 | inactive |
| Cc1nc(SCC(=O)Nc2cccc(Cl)c2)n[nH]1 | inactive |
| Cc1nn(C)cc1C1Nc2ccccc2C(=O)N1O (stereo unspecified) | inconclusive: 23.1 µM [falling, partial curve] |
| Cc1ccc(CN2CCC(C(=O)Nc3ccc(Oc4cccnc4)cc3)CC2)cc1 | inconclusive: 23.1 µM [falling, single point] |
| CC1(C)C=Cc2cc3ccc(=O)oc3cc2O1 | inconclusive: 18.4 µM [activator, partial curve, poor fit] |
| Cc1ccc(CNC(=O)NCc2ccccc2)cc1 | inconclusive: 13 µM [activator, single point] |
| Cc1cc(C)c(-c2csc(NC(=O)C3=COCCO3)n2)cc1C | inconclusive: 4.61 µM [activator, single point] |
| N/C(=N\OC(=O)c1ccc(Cl)cc1)c1cccnc1 | inconclusive: 20.6 µM [activator, partial curve] |
| C=CC[C@H](CC(=O)N(CCO)Cc1ccccc1)C(=O)N[C@H](COC(=O)[C@@H](CC=C)CC(=O)OC(C)(C)C)Cc1ccccc1 | inconclusive: 29.1 µM [falling, single point] |
| Cc1nc(SC(C)C(=O)NCC2CCCO2)c2cc(-c3ccccc3)sc2n1 (stereo unspecified) | inconclusive: 16.4 µM [activator, single point] |
| Cc1cccc(-c2noc(-c3cccnc3NCc3ccccc3Cl)n2)c1 | inconclusive: 32.6 µM [falling, single point] |
| CC(C)(C)c1cc(C(=S)N2CCCC2)cc(C(C)(C)C)c1O | inconclusive: 16.4 µM [falling, partial curve, poor fit] |
| CNC(=O)C1CCC(Cn2c(=O)c3sccc3n(CC(=O)N3CCCCC3C)c2=O)CC1 (stereo unspecified) | inconclusive: 0.517 µM [falling, full curve, poor fit] |

| Structure (SMILES) | Potency |
| --- | --- |
| COc1cc(C2CC(=O)N(c3ccc(C)c(Cl)c3)C3=C2C(=O)OC3)cc(OC)c1OC (stereo unspecified) | inactive |
| COc1cc2c(C(=O)O)c(C)n(C)c2c2ccccc12 | inactive |
| COc1cnc(-c2ccccn2)nc1NC(C)C | active: 14.6 µM |
| O=c1/c(=C\c2ccc(F)cc2)sc2n1CCCN=2 | inconclusive: 10.3 µM [activator, partial curve] |
| O=C(CCS(=O)(=O)c1ccc(Br)s1)Nc1c(F)cccc1F | inactive |
| C/C(=N/NC(=O)Cc1ccccc1)c1ccc(C)s1 | inconclusive: 18.4 µM [activator, single point] |
| COc1ccccc1Nc1nc(-c2c(C)nc3ncccn23)cs1 | active: 11.6 µM |
| CSc1ccc(/C=N/N2CCN(C)CC2)cc1 | inconclusive: 6.51 µM [activator, single point] |
| N#C/C(=C\c1cccc(O)c1)C(=O)N1CCCCC1 | inactive |
| O=C(Nc1ccc(Oc2ccc(C(F)(F)F)cn2)c(Cl)c1)C1CC1 | inconclusive: 29.1 µM [falling, single point] |
| CSc1cccc(NC(=S)N(Cc2ccccc2)Cc2ccccn2)c1 | inconclusive: 25.9 µM [falling, single point] |
| CC(C)(C)OC(=O)N(c1cccc2cccnc12)S(=O)(=O)c1ccccc1Br | inconclusive: 14.6 µM [falling, partial curve] |
| Clc1cccc(Cl)c1Cn1nnc(N2CCCC2)n1 | inactive |
| CCCSc1ncc(Cl)c(C(=O)Nc2ccc(OC)cc2OC)n1 | inconclusive: 29.1 µM [falling, single point] |
| CN1CCN(c2oc(-c3ccccc3F)nc2S(=O)(=O)c2ccc(Cl)cc2)CC1 | inconclusive: 3.66 µM [activator, single point] |
| O=C(NCCn1cc(SCc2ccc(C(F)(F)F)cc2)c2ccccc21)c1ccccc1F | inconclusive: 25.9 µM [falling, single point] |
| O=C(NC(=S)NCCC1=CCCCC1)c1ccco1 | inconclusive: 18.4 µM [activator, single point] |
| O=C1NC(=S)SC1=C1CCCCCC1 | inconclusive: 3.26 µM [falling, partial curve] |
| O=c1[nH]c2cc3c(cc2cc1CN(CCO)S(=O)(=O)c1ccccc1Cl)OCCO3 | inactive |
| Cc1c(C(=O)NCc2ccco2)oc2ccc(Br)cc12 | inconclusive: 4.61 µM [activator, partial curve] |
| CCOC(=O)C1(CC2CC2)CCN(S(=O)(=O)/C=C/c2ccccc2)CC1 | inconclusive: 20.6 µM [falling, single point] |
| CCCCOc1ccc(NC(=O)CSc2ccc(C(=O)O)cn2)cc1 | inactive |
| COc1cc(C(=O)Oc2ccccc2/C=N/NC(=O)c2ccc(C)cc2)cc(OC)c1OC | inactive |
| O=C1c2ccccc2C(=O)N1Cc1ccccn1 | inconclusive: 6.51 µM [falling, partial curve, poor fit] |

Filtered by structure: the compounds so far with a tert-butyl group (3)

| Structure (SMILES) | Potency |
| --- | --- |
| C=CC[C@H](CC(=O)N(CCO)Cc1ccccc1)C(=O)N[C@H](COC(=O)[C@@H](CC=C)CC(=O)OC(C)(C)C)Cc1ccccc1 | inconclusive: 29.1 µM [falling, single point] |
| CC(C)(C)c1cc(C(=S)N2CCCC2)cc(C(C)(C)C)c1O | inconclusive: 16.4 µM [falling, partial curve, poor fit] |
| CC(C)(C)OC(=O)N(c1cccc2cccnc12)S(=O)(=O)c1ccccc1Br | inconclusive: 14.6 µM [falling, partial curve] |

The listing continues:

| Structure (SMILES) | Potency |
| --- | --- |
| CCSc1nc2ccccc2c(=O)n1Cc1ccc(F)cc1 | inconclusive: 1.16 µM [falling, partial curve] |
| Nc1nc(SCc2ccc(Br)cc2)[nH]c(=O)c1-c1ccccc1 | inactive |
| CCOC(=O)Cc1csc(NC(=O)Cc2ccc([N+](=O)[O-])cc2)n1 | inconclusive: 0.0041 µM [falling, full curve, poor fit] |
| COc1ccccc1-c1nc2c3ccccc3nc(=S)n2[nH]1 | inactive |
| CC(C)[C@H](NC(=O)c1ccccc1)C(=O)OCC(=O)Nc1sccc1C(N)=O | inactive |
| N#CCCn1cc(/C=N/NC(N)=S)c(-c2ccc(-c3ccccc3)cc2)n1 | inconclusive: 18.4 µM [falling, partial curve] |
| O=[N+]([O-])c1ccccc1N/N=C/c1ccc2c(c1)OCO2 | inconclusive: 4.11 µM [activator, full curve] |
| Cn1c(=O)c2c(nc(NCCNC(=O)c3ccco3)n2Cc2ccccc2F)n(C)c1=O | inconclusive: 14.6 µM [falling, single point] |
| COc1cc(NC(=O)COn2nnc3ccc(S(C)(=O)=O)cc32)cc(OC)c1 | inactive |
| CC(C)c1ccc(NC(=S)Nc2ccc(OC(F)(F)F)cc2)cc1 | inconclusive: 13 µM [activator, partial curve, poor fit] |
| COC(=O)c1cn(C(=O)c2ccc(C)cc2C)c2ccccc12 | inconclusive: 4.11 µM [activator, single point] |
| Cc1ccc(-c2noc(CCC(=O)NCCCN3CCN(c4cccc(Cl)c4)CC3)n2)cc1 | inconclusive: 3.26 µM [activator, partial curve, poor fit] |
| O=C(CCN1C(=O)COc2ccccc21)NCCN1CCOCC1 | inconclusive: 8.2 µM [activator, partial curve, poor fit] |
| Cc1cc(=O)oc2cc(NC(=O)COc3ccccc3[N+](=O)[O-])ccc12 | inconclusive: 13 µM [falling, partial curve] |
| O=C(Nc1cc(S(=O)(=O)N2CCOCC2)ccc1N1CCOCC1)c1ccc([N+](=O)[O-])s1 | inconclusive: 16.4 µM [falling, partial curve, poor fit] |
| CCOC(=O)c1sc(NC(=O)C(CC)Sc2nccn2C)nc1C (stereo unspecified) | inconclusive: 36.6 µM [falling, partial curve, poor fit] |
| COc1ccc(N(Cc2cc3ccccc3[nH]c2=O)S(=O)(=O)c2ccc(OC)cc2)cc1 | inconclusive: 13 µM [falling, partial curve, poor fit] |
| COc1ccc(-c2csc3ncnc(N4CCN(S(=O)(=O)c5cccc(Br)c5)CC4)c23)cc1 | inconclusive: 9.2 µM [falling, partial curve, poor fit] |
| COc1ccc(/C=N/NC(=S)Nc2cccc(C(=O)O)c2)cc1 | inconclusive: 8.2 µM [activator, partial curve] |
| O=C(N/N=C/c1ccc(Cl)cc1)c1sccc1OCc1ccc(F)cc1 | inactive |
| CCN(CC(=O)NCCc1ccc(F)cc1)Cc1nc2ccccc2c(=O)[nH]1 | inactive |
| CN(Cc1ccccc1)C(=O)c1ccc(COc2ccccc2)cc1 | inactive |
| O=C(CNC(=O)c1ccc(Br)o1)NNC(=O)c1ccccc1 | inactive |

Source: PubChem BioAssay AID504444 (National Center for Advancing Translational Sciences (NCATS), 2011)
